Results from one PubChem assay

From PubChem BioAssay record AID1159506 (NCATS, 2015).

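Luminescence from an EWS-FLI1 target-promoter (NR0B1) reporter, set against a CMV-promoter reporter, two days after silencing single genes in TC32 Ewing sarcoma cells.
Each siRNA was applied at 20 nM.
A z-score of the log NR0B1-over-CMV signal, less the median of siRNAs with the same seed; more negative means a stronger specific loss of the NR0B1 reporter.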

The strongest results of the screen are mostly left out here.
Sequences are the guide (antisense) strand, without overhang.

strand,gene,seed-corrected z-score
AACUCUUCAAUGUCGCUUG,TYRO3,-0.1064
UACCGUAUUUGACAAAGGG,SEZ6,0.7349
UUGCCGUCAGAAAACAUGU,BAX,0.1252
UUUGAAGUCACUGGAAUGG,HIST2H2BF,-0.3974
AACCGUGUAGGAUAAACUG,SLC2A12,0.5156
UAGUGUACCAGCUCUAUGC,PRNT,-0.02828
AGAGGAUUCUGAGAGAUGC,MISP,-0.7309
UUGAGGAUGACAUCCAUGU,C20orf96,0.3505
AUAGUUGAAUUCAAGAUCC,TLR8,0.5511
UAGACCUACAUUGAUGUUG,FRMD7,0.01776
UUCAAAAGCCCUUAAACAC,CBR3,-0.7381
AAUAGAUCAUGAAGAGUCC,SLC33A1,-0.03211
UUCGGUUAUGAGCUUCUCG,ZCCHC4,-0.1238
UAAGUACAGUGCGUACUGC,OXA1L,0.1388
AAGUAGUUCGCAGUUAUUC,SOBP,0.2991
AACGGUGCGGUGAUUAUCU,FUT6,0.8847
UGAGGUACAAGUAGAGCGC,GPR157,-0.8404
UUGCUGAUCCACUAUCUCG,MANBA,-0.1579
UUCCUCUUGGGAUAUUUGG,IGSF21,-0.1313
UAUACGAUCCUCACGAUUC,PLCG1,0.3605
UUGGGAUUUAAUCUUACAG,TMTC4,-0.06198
UAACCAAGUAGACCAUUGG,OLA1,0.2465
UUGUUGUGCAGUAAGUGGG,UGT1A1,0.09764
UCUUGGUCUUAUUAGUUGC,SWAP70,-0.4982
UUAUAGAUUCGAACAACUC,RAD21L1,0.01091
UAUGGAGUAUGGGCACUGC,ERP27,-1.078
UAAAUAUGCAGAUAUGUCU,UBTD1,0.9414
UUCGUGUCGCCCUCUUUCU,ADRM1,0.77
UUUCUUUCCUCUCCGGACC,DENND2A,-0.06283
AAAGGUGCUAACCUCUUGG,HMGN2P18,-0.6693
UAUUCGCUCAGACGAAUCG,SYNPO2,-0.2048
AUAAUGUCCACAACAUUGG,NDRG3,0.2197
UUCCCAAACUUAACUGUCC,MOS,-0.2764
UUCCUGCUUCCGGUAGCUG,CCL21,-0.912
UACGCAUCGUCUGCAUUGC,TMPRSS4,0.1593
UUACUAACAUGUCGUCAUC,RAD21,1.209
AUUGCAUUCAAUGUAGGAC,NR1I2,-1.529
AUGCGAACUACAAUGUCCC,FAM90A1,0.05942
AAAUGAAGAACCACACUGU,C1QL3,1.9
AAAGGUAUUUUGUUCACUG,CEP83,0.7116
AUACUUUCCAGGACCAUCC,USP5,-0.5234
AAAGUUCCCAGAUACUGUC,LOC644681,1.419
UCGUUCUUAUCGAUCAUCC,PDCD6,0.2186
UGCUGUUCAUUUUCCAUCC,ASPHD2,-0.5722
UUCUUGAUAACCAUCUUAG,SLC1A2,0.1382
UUAACUCCCAUGGUGUUUC,KIAA2012,-0.4409
UAACUUGGUAGUCAGAUAU,CCDC157,1.017
UGUCUGACUGUGCCUAACU,POLD4,0.2374

The first 5 entries again:

{"strand": "AACUCUUCAAUGUCGCUUG", "gene": "TYRO3", "seed-corrected z-score": "-0.1064"}
{"strand": "UACCGUAUUUGACAAAGGG", "gene": "SEZ6", "seed-corrected z-score": "0.7349"}
{"strand": "UUGCCGUCAGAAAACAUGU", "gene": "BAX", "seed-corrected z-score": "0.1252"}
{"strand": "UUUGAAGUCACUGGAAUGG", "gene": "HIST2H2BF", "seed-corrected z-score": "-0.3974"}
{"strand": "AACCGUGUAGGAUAAACUG", "gene": "SLC2A12", "seed-corrected z-score": "0.5156"}